These results are taken from article doi:10.1101/2022.01.27.22269972.

Protein sequences, listed by entry. Tags and fused reporters are not part of them. Residues count along the entry.
UniProt P00367, residues 54-558: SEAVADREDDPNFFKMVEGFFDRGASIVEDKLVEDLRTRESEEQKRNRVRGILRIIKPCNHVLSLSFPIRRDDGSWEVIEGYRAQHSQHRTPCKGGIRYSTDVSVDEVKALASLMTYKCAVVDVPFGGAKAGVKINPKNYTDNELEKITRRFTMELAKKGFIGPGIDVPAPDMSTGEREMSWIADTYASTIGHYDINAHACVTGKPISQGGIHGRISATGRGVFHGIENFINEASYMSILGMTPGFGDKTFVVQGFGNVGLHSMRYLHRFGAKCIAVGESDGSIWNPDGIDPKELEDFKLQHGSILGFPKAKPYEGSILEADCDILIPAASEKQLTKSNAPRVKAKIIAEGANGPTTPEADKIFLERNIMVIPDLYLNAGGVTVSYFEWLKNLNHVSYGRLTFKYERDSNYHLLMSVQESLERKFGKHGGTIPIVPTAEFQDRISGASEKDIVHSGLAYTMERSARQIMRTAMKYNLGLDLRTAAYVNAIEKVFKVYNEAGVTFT

No constants are given. Whether binding was seen depends on the method and setting. Binding seen in cells or lysates may run through a third protein. A yes stands for co-enrichment or nearness to the bait. Other partners may have been found. For some assays here: No binding means not detected with the bait. Sequences can lack the tags named with a protein.

Common to all, as to test: affinity purification with mass spectrometry
Test [1] concerns the target T1, MMAB, C-terminally flag-tagged (human) (UniProt Q96EY8).
T1 sequence: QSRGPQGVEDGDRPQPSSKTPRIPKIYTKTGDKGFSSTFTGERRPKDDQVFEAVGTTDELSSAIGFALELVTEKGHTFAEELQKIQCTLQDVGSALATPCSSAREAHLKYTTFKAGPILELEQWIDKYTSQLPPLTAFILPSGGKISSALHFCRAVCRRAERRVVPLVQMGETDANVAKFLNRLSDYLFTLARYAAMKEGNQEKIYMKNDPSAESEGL

For test [2], the target named is T2, VLCAD, C-terminally flag-tagged (UniProt P49748).
T2 sequence: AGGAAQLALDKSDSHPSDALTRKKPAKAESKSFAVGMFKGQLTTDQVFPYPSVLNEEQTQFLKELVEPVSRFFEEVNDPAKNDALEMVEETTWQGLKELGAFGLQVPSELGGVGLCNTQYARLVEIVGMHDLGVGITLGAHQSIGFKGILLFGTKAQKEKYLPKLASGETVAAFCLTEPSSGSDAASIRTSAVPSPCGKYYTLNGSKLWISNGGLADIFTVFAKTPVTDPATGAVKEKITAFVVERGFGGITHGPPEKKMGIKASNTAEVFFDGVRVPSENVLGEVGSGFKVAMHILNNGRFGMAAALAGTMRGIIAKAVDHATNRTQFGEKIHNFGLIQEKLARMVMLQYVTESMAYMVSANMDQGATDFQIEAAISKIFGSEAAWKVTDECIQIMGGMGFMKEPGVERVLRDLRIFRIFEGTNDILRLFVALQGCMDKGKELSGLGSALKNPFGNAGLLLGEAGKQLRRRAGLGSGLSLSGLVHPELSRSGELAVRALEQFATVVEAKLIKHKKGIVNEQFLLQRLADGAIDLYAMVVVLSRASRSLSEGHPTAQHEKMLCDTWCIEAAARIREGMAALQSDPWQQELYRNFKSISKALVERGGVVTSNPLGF

Test [3] concerns the target T3, methylmalonyl-CoA mutase (MMUT), C-terminally flag-tagged (human) (UniProt P22033).
T3 sequence: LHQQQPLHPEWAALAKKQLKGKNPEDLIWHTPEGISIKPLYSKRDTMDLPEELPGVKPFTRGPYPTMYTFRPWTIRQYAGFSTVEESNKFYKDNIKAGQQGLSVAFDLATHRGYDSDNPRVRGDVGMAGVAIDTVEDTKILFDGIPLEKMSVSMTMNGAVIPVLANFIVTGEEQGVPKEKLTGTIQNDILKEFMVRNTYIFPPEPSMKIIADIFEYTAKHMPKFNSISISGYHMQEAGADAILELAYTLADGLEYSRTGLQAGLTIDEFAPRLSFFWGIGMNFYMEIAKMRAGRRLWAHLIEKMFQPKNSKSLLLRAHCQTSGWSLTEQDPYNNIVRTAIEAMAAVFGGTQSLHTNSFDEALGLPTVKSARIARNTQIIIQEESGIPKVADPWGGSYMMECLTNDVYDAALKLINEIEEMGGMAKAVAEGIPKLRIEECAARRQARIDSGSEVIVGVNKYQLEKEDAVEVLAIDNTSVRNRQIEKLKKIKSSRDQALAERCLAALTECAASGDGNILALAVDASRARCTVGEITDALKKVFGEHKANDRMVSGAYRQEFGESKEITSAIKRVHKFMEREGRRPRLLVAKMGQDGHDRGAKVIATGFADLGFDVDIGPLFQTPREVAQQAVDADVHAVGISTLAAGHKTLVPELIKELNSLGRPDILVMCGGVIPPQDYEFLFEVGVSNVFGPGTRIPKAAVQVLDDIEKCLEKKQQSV

For test [4], the target named is T4, MCEE, C-terminally flag-tagged (UniProt Q96PE7).
T4 sequence: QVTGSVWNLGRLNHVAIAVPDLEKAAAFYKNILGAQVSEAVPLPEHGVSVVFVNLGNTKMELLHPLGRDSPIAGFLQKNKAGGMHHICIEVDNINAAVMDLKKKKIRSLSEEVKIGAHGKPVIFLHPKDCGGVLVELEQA

For “glutamate dehydrogenase (GLUD1) (from UniProt P00367 54-558) (enzyme)”, the binding result in test [1] is “binds”; in test [2], “no binding”; in test [3], “binds”; in test [4], “binds”.

B1: GOT2 (enzyme, UniProt P00505 30-430)
chain: SSWWTHVEMGPPDPILGVTEAFKRDTNSKKMNLGVGAYRDDNGKPYVLPSVRKAEAQIAAKNLDKEYLPIGGLAEFCKASAELALGENSEVLKSGRFVTVQTISGTGALRIGASFLQRFFKFSRDVFLPKPTWGNHTPIFRDAGMQLQGYRYYDPKTCGFDFTGAVEDISKIPEQSVLLLHACAHNPTGVDPRPEQWKEIATVVKKRNLFAFFDMAYQGFASGDGDKDAWAVRHFIEQGINVCLCQSYAKNMGLYGERVGAFTMVCKDADEAKRVESQLKILIRPMYSNPPLNGARIAAAILNTPDLRKQWLQEVKVMADRIIGMRTQLVSNLKKEGSTHNWQHITDQIGMFCFTGLKPEQVERLIKEFSIYMTKDGRISVAGVTSSNVGYLAHAIHQVTK
Turning to B1, the binding entry is given as “binds” in test [1], “no binding” in test [2], “binds” in test [3] and “binds” in test [4].
